At least one compound was matched to its structure with a doubt left.
System: GAD67-, VGluT1-, ChAT-positive neurons and OX42 reactive microglia in the hippocampus
Assay: Immunohistochemical analysis of GAD67, VGluT1, ChAT, OX42 in hippocampus (Experimental Example 1)
Format: in vivo, rat
Details: memory-deficient model rats; soyasaponin I at 5, 10, 20 mg/kg oral
Description: Immunostaining was carried out using antibodies against VGluT1 (diluted 1:500, Chemicon), ChAT (1:500, Chemicon), GFAP (1:1,000, Chemicon), tyrosine hydroxylase (TH, 1:500, Chemicon) and OX42 (CD11b/c, 1:250, Serotec) as primary antibodies instead of the anti-BrdU antibodies used in (4). The other process was the same as in (4), except that incubation was performed at 37° C. for 30 minutes in 2 N HCl.
In the immunohistochemical analysis, the number of the cells immnunostained against each antibody was counted from 5 or 6 hippocampal coronal sections. For each staining analysis, every fifth cryosections of the hippocampal region of brain tissues (AP: bregma −4.5 to −4.3 mm) were taken for immunostaining. The number of the immnunostained cells was represented as an average of number of cells in the hippocampal region of one brain slice.
The number of the VGluT1- and GAD-positive cells in the brain slice samples 1 week and 4 weeks after the administration of soyasaponin I was presented per microscopic field (×400-VGluT1, ×800-GAD67) and the number of the ChAT-positive cells was presented per each hippocampal region (10-12 confocal laser microscopic fields). 5-11 animals were used per group. Western blotted membranes were analyzed using the multi-gauge, bio-imaging program on LAS-4000 Mini (Fujifilm Life Science, Stamford, Conn., USA). […]

SMILES: C[C@@H]1O[C@@H](O[C@H]2[C@H](O[C@H]3[C@H](O[C@H]4CC[C@@]5(C)[C@@H](CC[C@]6(C)[C@@H]5CC=C5[C@@H]7CC(C)(C)C[C@@H](O)[C@]7(C)CC[C@]56C)[C@@]4(C)CO)O[C@H](C(=O)O)[C@@H](O)[C@@H]3O)O[C@H](CO)[C@H](O)[C@@H]2O)[C@H](O)[C@H](O)[C@H]1O [soyasaponin I]
- Number of ChAT-positive cells in the hippocampus: 17.64±4.23 cells to 20.93±4.50
- Number of GAD67-positive cells: 6.83±1.47 to 7.86±1.62

Source: patent US20150307841A1, “Composition for Promoting Differentiation and Proliferation of Neural Stem Cell and Neural Precursor Cell” (priority 2014, published 2015)
